Results as given in article PMC4534575, “The RNA Helicase DHX34 Activates NMD by Promoting a Transition from the Surveillance to the Decay-Inducing Complex” (Cell Reports, 2014).

Legend:
[1] = biological target: T1, FLAG-UPF1 (wild-type) (human) (UniProt Q92900); assay: co-IP; anti-FLAG IP of transiently transfected FLAG-UPF1 (wild-type or mutants) from HEK293T lysate; endogenous partners by western blot; in the absence or presence of RNase A (Figures 2B, S2B); cells also depleted of DHX34 by shRNA, rescued with T7-DHX34, or cotransfected with T7-DHX34
T1 sequence: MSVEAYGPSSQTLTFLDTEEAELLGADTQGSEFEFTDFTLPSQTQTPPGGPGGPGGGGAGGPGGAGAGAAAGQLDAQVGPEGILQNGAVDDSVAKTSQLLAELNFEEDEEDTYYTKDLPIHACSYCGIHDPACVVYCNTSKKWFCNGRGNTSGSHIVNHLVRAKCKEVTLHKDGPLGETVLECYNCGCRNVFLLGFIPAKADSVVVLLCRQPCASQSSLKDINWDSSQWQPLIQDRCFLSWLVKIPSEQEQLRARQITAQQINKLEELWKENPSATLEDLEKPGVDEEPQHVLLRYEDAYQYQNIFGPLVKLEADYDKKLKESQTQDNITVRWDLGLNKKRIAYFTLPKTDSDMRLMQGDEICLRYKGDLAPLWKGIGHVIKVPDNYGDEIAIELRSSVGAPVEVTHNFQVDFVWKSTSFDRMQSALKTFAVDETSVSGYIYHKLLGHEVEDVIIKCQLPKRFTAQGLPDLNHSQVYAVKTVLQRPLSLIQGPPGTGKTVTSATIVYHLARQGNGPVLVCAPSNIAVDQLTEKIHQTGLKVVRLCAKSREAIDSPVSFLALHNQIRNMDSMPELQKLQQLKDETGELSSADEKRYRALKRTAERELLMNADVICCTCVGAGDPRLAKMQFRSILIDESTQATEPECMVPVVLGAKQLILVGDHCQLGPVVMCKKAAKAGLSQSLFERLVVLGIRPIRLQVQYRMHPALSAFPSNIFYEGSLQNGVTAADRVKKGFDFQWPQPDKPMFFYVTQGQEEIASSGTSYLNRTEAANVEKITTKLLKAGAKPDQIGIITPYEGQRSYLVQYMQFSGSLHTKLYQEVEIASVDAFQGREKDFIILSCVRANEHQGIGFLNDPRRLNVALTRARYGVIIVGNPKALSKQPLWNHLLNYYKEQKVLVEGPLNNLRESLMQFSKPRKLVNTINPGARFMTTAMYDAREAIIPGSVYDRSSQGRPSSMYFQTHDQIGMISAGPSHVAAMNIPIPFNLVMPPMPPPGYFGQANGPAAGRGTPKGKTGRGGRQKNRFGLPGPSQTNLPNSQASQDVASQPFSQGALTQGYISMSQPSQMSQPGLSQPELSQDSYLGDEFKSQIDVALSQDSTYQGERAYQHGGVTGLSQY

FLAG-UPF1 ΔCT (human) = assay: co-IP; anti-FLAG IP from HEK293T cells cotransfected with FLAG-UPF1 (wild-type or mutants) and T7-DHX34 (wild-type or ATPase mutants); RNase A in Figure 3C; T7-DHX34 by western blot
FLAG-UPF1 ΔN (human) = assay: as above
FLAG-UPF1 ΔCH (human) = assay: as above
FLAG-eRF3 = assay: co-IP; anti-FLAG IP from HEK293T cells depleted of DHX34 by shRNA and cotransfected with FLAG-eRF1 or FLAG-eRF3 and shRNA-resistant T7-DHX34; lysis in 20 mM Tris-HCl (pH 7.2), 150 mM KCl, 10 mM MgCl2, 0.5% NP-40

B1: T7-DHX34 (wild-type) (protein, UniProt Q14147 1-1143)
chain: MPPPRTREGRDRRDHHRAPSEEEALEKWDWNCPETRRLLEDAFFREEDYIRQGSEECQKFWTFFERLQRFQNLKTSRKEEKDPGQPKHSIPALADLPRTYDPRYRINLSVLGPATRGSQGLGRHLPAERVAEFRRALLHYLDFGQKQAFGRLAKLQRERAALPIAQYGNRILQTLKEHQVVVVAGDTGCGKSTQVPQYLLAAGFSHVACTQPRRIACISLAKRVGFESLSQYGSQVGYQIRFESTRSAATKIVFLTVGLLLRQIQREPSLPQYEVLIVDEVHERHLHNDFLLGVLQRLLPTRPDLKVILMSATINISLFSSYFSNAPVVQVPGRLFPITVVYQPQEAEPTTSKSEKLDPRPFLRVLESIDHKYPPEERGDLLVFLSGMAEISAVLEAAQTYASHTQRWVVLPLHSALSVADQDKVFDVAPPGVRKCILSTNIAETSVTIDGIRFVVDSGKVKEMSYDPQAKLQRLQEFWISQASAEQRKGRAGRTGPGVCFRLYAESDYDAFAPYPVPEIRRVALDSLVLQMKSMSVGDPRTFPFIEPPPPASLETAILYLRDQGALDSSEALTPIGSLLAQLPVDVVIGKMLILGSMFSLVEPVLTIAAALSVQSPFTRSAQSSPECAAARRPLESDQGDPFTLFNVFNAWVQVKSERSRNSRKWCRRRGIEEHRLYEMANLRRQFKELLEDHGLLAGAQAAQVGDSYSRLQQRRERRALHQLKRQHEEGAGRRRKVLRLQEEQDGGSSDEDRAGPAPPGASDGVDIQDVKFKLRHDLAQLQAAASSAQDLSREQLALLKLVLGRGLYPQLAVPDAFNSSRKDSDQIFHTQAKQGAVLHPTCVFAGSPEVLHAQELEASNCDGSRDDKDKMSSKHQLLSFVSLLETNKPYLVNCVRIPALQSLLLFSRSLDTNGDCSRLVADGWLELQLADSESAIRLLAASLRLRARWESALDRQLAHQAQQQLEEEEEDTPVSPKEVATLSKELLQFTASKIPYSLRRLTGLEVQNMYVGPQTIPATPHLPGLFGSSTLSPHPTKGGYAVTDFLTYNCLTNDTDLYSDCLRTFWTCPHCGLHAPLTPLERIAHENTCPQAPQDGPPGAEEAALETLQKTSVLQRPYHCEACGKDFLFTPTEVLRHRKQHV
- binding (FLAG-UPF1 ΔCT (human)): binds
- binding (FLAG-UPF1 ΔN (human)): binds
- binding (FLAG-UPF1 ΔCH (human)): binds

B2: T7-DHX34 K191S (protein, UniProt Q14147 1-1143)
chain: MPPPRTREGRDRRDHHRAPSEEEALEKWDWNCPETRRLLEDAFFREEDYIRQGSEECQKFWTFFERLQRFQNLKTSRKEEKDPGQPKHSIPALADLPRTYDPRYRINLSVLGPATRGSQGLGRHLPAERVAEFRRALLHYLDFGQKQAFGRLAKLQRERAALPIAQYGNRILQTLKEHQVVVVAGDTGCGSSTQVPQYLLAAGFSHVACTQPRRIACISLAKRVGFESLSQYGSQVGYQIRFESTRSAATKIVFLTVGLLLRQIQREPSLPQYEVLIVDEVHERHLHNDFLLGVLQRLLPTRPDLKVILMSATINISLFSSYFSNAPVVQVPGRLFPITVVYQPQEAEPTTSKSEKLDPRPFLRVLESIDHKYPPEERGDLLVFLSGMAEISAVLEAAQTYASHTQRWVVLPLHSALSVADQDKVFDVAPPGVRKCILSTNIAETSVTIDGIRFVVDSGKVKEMSYDPQAKLQRLQEFWISQASAEQRKGRAGRTGPGVCFRLYAESDYDAFAPYPVPEIRRVALDSLVLQMKSMSVGDPRTFPFIEPPPPASLETAILYLRDQGALDSSEALTPIGSLLAQLPVDVVIGKMLILGSMFSLVEPVLTIAAALSVQSPFTRSAQSSPECAAARRPLESDQGDPFTLFNVFNAWVQVKSERSRNSRKWCRRRGIEEHRLYEMANLRRQFKELLEDHGLLAGAQAAQVGDSYSRLQQRRERRALHQLKRQHEEGAGRRRKVLRLQEEQDGGSSDEDRAGPAPPGASDGVDIQDVKFKLRHDLAQLQAAASSAQDLSREQLALLKLVLGRGLYPQLAVPDAFNSSRKDSDQIFHTQAKQGAVLHPTCVFAGSPEVLHAQELEASNCDGSRDDKDKMSSKHQLLSFVSLLETNKPYLVNCVRIPALQSLLLFSRSLDTNGDCSRLVADGWLELQLADSESAIRLLAASLRLRARWESALDRQLAHQAQQQLEEEEEDTPVSPKEVATLSKELLQFTASKIPYSLRRLTGLEVQNMYVGPQTIPATPHLPGLFGSSTLSPHPTKGGYAVTDFLTYNCLTNDTDLYSDCLRTFWTCPHCGLHAPLTPLERIAHENTCPQAPQDGPPGAEEAALETLQKTSVLQRPYHCEACGKDFLFTPTEVLRHRKQHV
- binding (FLAG-eRF3): binds

Second part, the molecule after the results:

- binding [1]: binds
Molecule: eukaryotic release factor eRF3 (endogenous) (human (endogenous in HEK293T))

- binding (FLAG-eRF3): binds
B3: T7-DHX34 D279A (protein, UniProt Q14147 1-1143)
chain: MPPPRTREGRDRRDHHRAPSEEEALEKWDWNCPETRRLLEDAFFREEDYIRQGSEECQKFWTFFERLQRFQNLKTSRKEEKDPGQPKHSIPALADLPRTYDPRYRINLSVLGPATRGSQGLGRHLPAERVAEFRRALLHYLDFGQKQAFGRLAKLQRERAALPIAQYGNRILQTLKEHQVVVVAGDTGCGKSTQVPQYLLAAGFSHVACTQPRRIACISLAKRVGFESLSQYGSQVGYQIRFESTRSAATKIVFLTVGLLLRQIQREPSLPQYEVLIVAEVHERHLHNDFLLGVLQRLLPTRPDLKVILMSATINISLFSSYFSNAPVVQVPGRLFPITVVYQPQEAEPTTSKSEKLDPRPFLRVLESIDHKYPPEERGDLLVFLSGMAEISAVLEAAQTYASHTQRWVVLPLHSALSVADQDKVFDVAPPGVRKCILSTNIAETSVTIDGIRFVVDSGKVKEMSYDPQAKLQRLQEFWISQASAEQRKGRAGRTGPGVCFRLYAESDYDAFAPYPVPEIRRVALDSLVLQMKSMSVGDPRTFPFIEPPPPASLETAILYLRDQGALDSSEALTPIGSLLAQLPVDVVIGKMLILGSMFSLVEPVLTIAAALSVQSPFTRSAQSSPECAAARRPLESDQGDPFTLFNVFNAWVQVKSERSRNSRKWCRRRGIEEHRLYEMANLRRQFKELLEDHGLLAGAQAAQVGDSYSRLQQRRERRALHQLKRQHEEGAGRRRKVLRLQEEQDGGSSDEDRAGPAPPGASDGVDIQDVKFKLRHDLAQLQAAASSAQDLSREQLALLKLVLGRGLYPQLAVPDAFNSSRKDSDQIFHTQAKQGAVLHPTCVFAGSPEVLHAQELEASNCDGSRDDKDKMSSKHQLLSFVSLLETNKPYLVNCVRIPALQSLLLFSRSLDTNGDCSRLVADGWLELQLADSESAIRLLAASLRLRARWESALDRQLAHQAQQQLEEEEEDTPVSPKEVATLSKELLQFTASKIPYSLRRLTGLEVQNMYVGPQTIPATPHLPGLFGSSTLSPHPTKGGYAVTDFLTYNCLTNDTDLYSDCLRTFWTCPHCGLHAPLTPLERIAHENTCPQAPQDGPPGAEEAALETLQKTSVLQRPYHCEACGKDFLFTPTEVLRHRKQHV

No constants are given. Whether binding was seen depends on the method and setting. In cells and extracts the contact can be indirect. Binding calls can cover weak binding; strength is not graded here. For part of these data: Sequences can lack the tags named with a protein. Each block holds one molecule with its values, some of them ahead of it.
